These are yes or no findings as the source states them, for the method shown. In cells and extracts the contact can be indirect. These calls come from enrichment with a bait or labelling near it, and not all partners need be listed.

Chains of the proteins cited; added tags and fusions are not shown. Lines headed by an entry give the natural chain unless they say otherwise; changes in a name come on top.
UniProt O75762: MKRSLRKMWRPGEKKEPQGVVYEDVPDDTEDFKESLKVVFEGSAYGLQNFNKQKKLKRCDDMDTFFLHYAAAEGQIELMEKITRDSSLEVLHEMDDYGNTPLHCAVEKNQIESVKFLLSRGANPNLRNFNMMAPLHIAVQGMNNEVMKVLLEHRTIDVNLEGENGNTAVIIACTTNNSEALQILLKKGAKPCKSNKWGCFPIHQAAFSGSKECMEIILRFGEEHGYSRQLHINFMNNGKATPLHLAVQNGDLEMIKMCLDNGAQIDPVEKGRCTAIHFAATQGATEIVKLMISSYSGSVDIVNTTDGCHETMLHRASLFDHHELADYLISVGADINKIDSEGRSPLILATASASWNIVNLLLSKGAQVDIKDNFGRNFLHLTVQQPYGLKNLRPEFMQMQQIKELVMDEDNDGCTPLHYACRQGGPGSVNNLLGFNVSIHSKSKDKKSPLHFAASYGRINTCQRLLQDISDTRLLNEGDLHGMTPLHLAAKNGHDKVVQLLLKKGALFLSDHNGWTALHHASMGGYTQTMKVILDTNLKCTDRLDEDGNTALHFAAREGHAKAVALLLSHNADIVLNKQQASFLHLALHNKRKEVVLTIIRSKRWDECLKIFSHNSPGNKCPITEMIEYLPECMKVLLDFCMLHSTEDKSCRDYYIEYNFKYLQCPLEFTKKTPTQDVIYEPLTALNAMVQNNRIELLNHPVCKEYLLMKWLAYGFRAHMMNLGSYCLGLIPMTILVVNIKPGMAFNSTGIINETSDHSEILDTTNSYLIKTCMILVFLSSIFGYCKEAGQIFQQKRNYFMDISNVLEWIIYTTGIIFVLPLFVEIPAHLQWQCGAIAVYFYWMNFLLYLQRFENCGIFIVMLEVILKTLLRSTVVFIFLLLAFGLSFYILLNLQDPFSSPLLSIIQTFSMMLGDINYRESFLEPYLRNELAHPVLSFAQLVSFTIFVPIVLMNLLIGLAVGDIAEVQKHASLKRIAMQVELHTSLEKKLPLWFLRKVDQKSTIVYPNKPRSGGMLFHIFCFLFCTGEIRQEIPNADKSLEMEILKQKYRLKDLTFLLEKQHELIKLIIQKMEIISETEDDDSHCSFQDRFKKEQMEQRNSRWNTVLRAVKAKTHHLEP

Here are results for two substances from doi:10.1101/2022.01.05.475133 (bioRxiv, 2022).

This test deals with BioID2-fused WT human TRPA1 (human) (UniProt O75762). Kind of test: proximity labelling.

With “3xFLAG-tagged R919* human TRPA1 (from UniProt O75762 1-918) (domain or fragment)”, the binding result is listed as “binds”.

Consider “3xFLAG-tagged WT human TRPA1 (from UniProt O75762 1-1119)”, for which the binding result is on record as “binds”.
